Experimental data: PMC12260939, “Radiosynthesis and Evaluation of ^11C‑Labeled Imidazolyl Pyrimidine Derivatives for Positron Emission Tomography Imaging of Glycogen Synthase Kinase‑3” (ACS Pharmacology & Translational Science, 2025)

The compounds below were run on GSK-3 (assay: Radioligand saturation binding assay with tritiated ligands in hippocampal membranes). Details: tritiated ligand, hippocampus of SD rat brains.
Design: species or system Sprague–Dawley rat
Protocol: The pharmacology and physicochemical properties of compounds 13a–13e are depicted in Table . To evaluate binding affinities, saturation binding assays using tritiated ligands [^3H]13a, [^3H]13c, [^3H]13d, [^3H]13e (Scheme S1) were performed using the hippocampal tissue of Sprague–Dawley (SD) rat brains. As depicted in Table A, total binding (TB), nonspecific binding (NSB), and specific binding (SB) of the respective tritiated ligands were measured with increasing concentrations of the radioligands. The dissociation constant (Kd) and capacity (B max) of each radioligand were calculated to confirm their binding affinity.
For membrane preparation, hippocampal tissue from adult rats (Sprague–Dawley) was dissected out, weighed, and frozen in 0.32 M sucrose at −70 °C. On the experiment day, the tissue was thawed, homogenized in 50 mM Tris, 5 mM EDTA (pH 7.4) and then centrifuged at 48 000 xg for 15 min at +4 °C. The pellet was diluted in binding buffer (50 mM Tris, 4 mM MgCl2, 1 mM EDTA pH 7.4) to a final concentration of 2.5 mg w.w./mL. Saturation binding experiments were performed in duplicate, with each tube containing 1 mg w.w. in 0.5 mL binding buffer and 0.1 – 17 nM (11–12 concentrations) of radioligand. Nonspecific binding was measured by adding 10 μM AR-A014418. The assays were incubated for 2–3 h at room temperature and terminated by quick filtration using Whatman GF/B filters pretreated with 0.3% polyethylenimine on a Brandel cell harvester. Radioactivity was measured with a Packard Tri-Carb 2900TR liquid scintillation counter, and data were processed by nonlinear regression analyses using PRISM 4.03.

Cc1ncc(-c2nc(Nc3ccc(C(=O)N4CCCCC4)c(Cl)c3)ncc2F)n1C1CCOCC1 [13a] was tested. Which Bmax did it give?
Its Bmax is 64.5 fmol/mg.

How did the Bmax turn out when Cc1cc(Nc2ncc(F)c(-c3cnc(C)n3C3CCOCC3)n2)ccc1C(=O)N(C)C [13c] was run?
Its Bmax is 68.4 fmol/mg.

COCCN(C)C(=O)c1ccc(Nc2ncc(F)c(-c3cnc(C)n3C3CCOCC3)n2)cc1C [13d] was tested. Which Bmax did it give?
Its Bmax is 68.0 fmol/mg.

Which Bmax does the source give for CC(=O)N1CCN(Cc2ccc(Nc3ncc(F)c(-c4cnc(C)n4C4CCOCC4)n3)cc2)CC1 [13e] here?
Its Bmax is 83.4 fmol/mg.
